Laboratory results as given in PMC4736186.
No constants are given. Whether binding was seen depends on the method and setting. In cells and extracts the contact can be indirect. Some entries that bind do so weakly or less than the wild type.

By UniProt entry, the sequences of proteins in these tests, tags left out. Residues count along the entry.
UniProt P63038, residues 27-573: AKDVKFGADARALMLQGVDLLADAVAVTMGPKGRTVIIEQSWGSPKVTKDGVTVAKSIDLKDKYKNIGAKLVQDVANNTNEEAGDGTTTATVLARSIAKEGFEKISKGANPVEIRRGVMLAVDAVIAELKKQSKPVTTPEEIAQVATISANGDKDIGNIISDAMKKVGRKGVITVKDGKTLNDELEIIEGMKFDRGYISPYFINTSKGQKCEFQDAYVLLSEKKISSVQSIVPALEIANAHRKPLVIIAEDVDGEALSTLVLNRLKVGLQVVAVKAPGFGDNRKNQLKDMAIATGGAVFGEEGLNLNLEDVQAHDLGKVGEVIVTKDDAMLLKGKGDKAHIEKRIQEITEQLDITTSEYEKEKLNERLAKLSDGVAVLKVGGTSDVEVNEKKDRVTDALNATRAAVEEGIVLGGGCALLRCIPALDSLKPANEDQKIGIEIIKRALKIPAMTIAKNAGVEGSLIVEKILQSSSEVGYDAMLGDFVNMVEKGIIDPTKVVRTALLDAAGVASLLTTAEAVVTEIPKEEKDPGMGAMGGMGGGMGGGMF
UniProt Q9QUK6, residues 26-835: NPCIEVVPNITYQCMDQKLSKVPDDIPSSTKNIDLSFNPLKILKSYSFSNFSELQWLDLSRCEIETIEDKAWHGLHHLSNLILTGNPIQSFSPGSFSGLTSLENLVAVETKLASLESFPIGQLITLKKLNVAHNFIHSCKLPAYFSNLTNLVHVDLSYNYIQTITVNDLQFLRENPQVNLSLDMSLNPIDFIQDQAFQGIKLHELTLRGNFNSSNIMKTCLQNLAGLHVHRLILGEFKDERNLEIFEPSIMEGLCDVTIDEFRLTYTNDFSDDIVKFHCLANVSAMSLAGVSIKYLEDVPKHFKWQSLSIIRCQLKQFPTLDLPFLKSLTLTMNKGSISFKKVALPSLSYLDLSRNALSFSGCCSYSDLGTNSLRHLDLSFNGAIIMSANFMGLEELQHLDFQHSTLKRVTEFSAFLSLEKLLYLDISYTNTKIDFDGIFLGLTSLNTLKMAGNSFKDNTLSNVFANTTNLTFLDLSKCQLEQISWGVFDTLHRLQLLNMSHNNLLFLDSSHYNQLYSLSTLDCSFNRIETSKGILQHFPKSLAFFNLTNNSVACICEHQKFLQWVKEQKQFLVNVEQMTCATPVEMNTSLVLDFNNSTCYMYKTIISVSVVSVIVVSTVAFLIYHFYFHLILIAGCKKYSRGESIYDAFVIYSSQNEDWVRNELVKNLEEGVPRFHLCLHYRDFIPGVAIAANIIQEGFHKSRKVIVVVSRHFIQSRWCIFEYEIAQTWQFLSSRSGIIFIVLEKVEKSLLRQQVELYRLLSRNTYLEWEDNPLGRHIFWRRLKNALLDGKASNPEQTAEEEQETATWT

Target: HSP60 (mouse (endogenous in N9)) (UniProt P63038)
Assay: co-IP; whole-cell extracts (500 ug) of N9 microglial cells, untreated or treated with IL-1β for 3 h; lysis in 50 mM Tris pH 7.4, 150 mM NaCl, 5 mM EDTA, 1 % NP-40; 5 ug anti-HSP60 antibody overnight at 4 °C, protein A Sepharose 2 h at 4 °C; blot with anti-TLR4 and anti-HSP60

- binding: binds
Substance: toll-like receptor 4 (from UniProt Q9QUK6 26-835)
